Some entries share one result that the patent states for a list of compounds.
Settings: intranasal 5 mg

Cc1ncc2n1-c1ccc(Cl)cc1C(c1ccccc1F)=NC2 [MDZ, midazolam]
time for tolerability scores to return to baseline values: ≤ 60 min

CN1C(=O)CN=C(c2ccccc2)c2cc(Cl)ccc21 [DZP, diazepam]
time for tolerability scores to return to baseline values: ≤ 60 min

From patent US20070208011A1, “Supersaturated Benzodiazepine Solutions and Their Delivery” (priority 2005, published 2007)
